Counter-ions that a name gives are not always drawn. Some of the results follow. Hit calls seldom repeat between salt and free forms of one compound.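 Kinases, fused to nanoluciferase, were expressed in K562 cells; luminescence was measured every 4 h from 2 to 18 h as percent of control (DMSO = 100%, positive control = 0%). A time point is decreased if signal falls significantly (2 sigma). Hits were called by the authors by a rule that is not shown; the count of time points alone does not decide it.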
molecular target: CDK5 (UniProt Q00535); test: kinase-Nluc reporter destabilization hit call (1 = scored as downregulated) (binary); higher = compound decreases kinase abundance; details: K562; 2-18 h

Sequences of proteins named here, by UniProt entry; tags and fusion partners are left off.
UniProt Q00535, whole entry, looked up: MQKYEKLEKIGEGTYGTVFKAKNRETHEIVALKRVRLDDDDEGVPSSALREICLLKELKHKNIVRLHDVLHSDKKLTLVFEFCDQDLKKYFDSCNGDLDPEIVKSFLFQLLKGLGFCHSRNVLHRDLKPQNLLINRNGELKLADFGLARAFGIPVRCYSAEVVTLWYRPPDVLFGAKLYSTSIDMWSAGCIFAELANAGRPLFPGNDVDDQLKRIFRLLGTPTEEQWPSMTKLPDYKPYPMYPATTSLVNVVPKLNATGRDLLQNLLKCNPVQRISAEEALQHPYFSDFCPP

kinase-Nluc reporter destabilization hit call, inactive:
CC(C)CCN1c2nc(Nc3cc(F)c(O)c(F)c3)ncc2N(C)C(=O)C1C (stereo not drawn) (2.5 µM) 0
CC(C)=CC[C@@H](O)C1=CC(=O)c2c(O)ccc(O)c2C1=O [Shikonin] (10 µM) 0
CCC(=O)Nc1cccc(Oc2nc(Nc3ccc(N4CCN(C)CC4)cc3OC)ncc2Cl)c1 (10 µM) 0
CC(C)=CCC/C(C)=C/CC/C(C)=C/C=C/C(C)=C/C(=O)O [Peretinoin] (10 µM) 0
COc1ccc2c(Oc3ccc4c(C(=O)Nc5ccccc5N)cccc4c3)ccnc2c1 [Chiauranib] (10 µM) 0
Cc1nn(C)cc1-c1nc2c(N3CCN(Cc4ccc(Cl)cc4)CC3)c(Cl)cnc2[nH]1 (10 µM) 0
CNC(=O)c1cc2c(Oc3ccc(NC(=O)C4(C(=O)Nc5ccc(F)cc5)CC4)cc3)ccnc2cc1OC (2.5 µM) 0
O=C(Nc1cccnc1)c1cc(-c2ccnc(F)c2)ccc1OCc1ccccc1 (10 µM) 0
CN(C)c1ccc(-c2nc3ncc(Cl)c(N4CCN(CC(=O)Nc5nccs5)CC4)c3[nH]2)cc1 (2 µM) 0
Cc1cc(C(=O)NC(C)(C)C)cc(C#Cc2ccc3c4c(oc3c2)C(C)(C)c2cc(NS(C)(=O)=O)ccc2C4=O)n1 (10 µM) 0
O=C(O)c1cc(N(Cc2ccccc2O)Cc2cc(O)ccc2O)ccc1O [Lavendustin A] (10 µM) 0
C[C@@H](Nc1ncnc2[nH]c(-c3ccc(O)cc3)cc12)c1ccccc1 (2.5 µM) 0
O=C(O)c1ccc(/C=C/S(=O)(=O)Cc2ccc(Cl)cc2)cc1 [Recilisib] (10 µM) 0
Nc1nc(NCCNc2ncc(-n3ccnc3)c(-c3ccc(Cl)cc3Cl)n2)ccc1[N+](=O)[O-] (2.5 µM) 0
Cc1cnc(NC(=O)c2cc(Oc3cnc(C(=O)N(C)C)nc3)c3cc(C)oc3c2)cn1 (10 µM) 0
CNC(=O)CNc1cnc2ccc(-c3ccc(OC)c(OC)c3)cc2n1 (10 µM) 0
N[C@@H]1CCCN(c2c(/C=C3\SC(=O)NC3=O)cccc2-c2ccccc2)C1 (10 µM) 0
CO[C@H]1C[C@@H]2CC[C@@H](C)[C@@](O)(O2)C(=O)C(=O)N2CCCC[C@H]2C(=O)O[C@H]([C@H](C)C[C@@H]2CC[C@@H](OC(=O)C(C)(CO)CO)[C@H](OC)C2)CC(=O)[C@H](C)/C=C(\C)[C@@H](O)[C@@H](OC)C(=O)[C@H](C)C[C@H](C)/C=C/C=C/C=C/1C [Temsirolimus] (2.5 µM) 0
COc1cc2nccc(Oc3ccc(NC(=O)c4cn(C(C)C)c(=O)n(-c5ccc(F)cc5)c4=O)cc3F)c2cc1OC (0.5 µM) 0
C=C1CCC[C@]2(C)C=C3OC(=O)C(C)=C3C[C@@H]12 [Atractylenolide I] (10 µM) 0
C=CC(=O)Nc1cc(Nc2nccc(-c3cn(C)c4ccccc34)n2)c(OC)cc1OCCN(C)C [Rezivertinib] (2.5 µM) 0
C=C1C(=O)[C@@]23[C@H](O)C[C@@H]4C(C)(C)C(=O)CC[C@@]4(C)[C@@H]2CC[C@@H]1[C@H]3O [Glaucocalyxin A] (2.5 µM) 0
NC1(C(=O)NCCCn2cc(-c3ccc(OC(F)(F)F)cc3)c3cc(CN4CCN(Cc5c(Cl)cccc5Cl)CC4)ccc32)CCNCC1 (2.5 µM) 0
CC(Sc1nc2c(cnn2-c2cccc(Cl)c2)c(=O)[nH]1)C(N)=O (stereo not drawn) (10 µM) 0
Fc1ccc2[nH]ccc2c1-c1nc(N2CCOCC2)c2sc(CN3CCN(CC4CC4)CC3)cc2n1 (10 µM) 0
Cn1cc(-c2cc(Oc3cc(F)c(NC(=O)C4(C(=O)Nc5ccccc5)CC4)cc3F)ccn2)cn1 (2.5 µM) 0
COc1ccc(S(=O)(=O)Nc2cc(-c3c(O)ccc4ccccc34)c(O)c3ccccc23)cc1 (10 µM) 0
Cn1c2cc([S+](C)[O-])sc2c2cnn(Cc3cccc(N)c3)c(=O)c21 (stereo not drawn) (2.5 µM) 0
O=C(NCCO)c1cc(C(=O)NCCO)cc(C(=O)NCCO)c1 (10 µM) 0
N#Cc1cnc2c(Cl)cc(NCc3cn(CCN4CCCCCC4)nn3)cc2c1Nc1ccc(F)c(Cl)c1 [Cot inhibitor-1] (10 µM) 0
Cn1c(=O)c2c(nc(S(C)(=O)=O)n2C)n(CC#Cc2cccc(O)c2)c1=O (2.5 µM) 0
Cc1ccc(C)c(OCCn2cc(C(=O)O)c3ccccc32)c1 (10 µM) 0
C=CC(=O)Nc1ccc(C(=O)Nc2[nH]nc3c2CN(C(=O)N[C@H](CN(C)C)c2ccccc2)C3(C)C)cc1 (10 µM) 0
Nc1ncnc2c1nc(Br)n2[C@@H]1O[C@@H]2COP(=O)(O)O[C@H]2[C@H]1O [8-Bromo-cAMP sodium salt] (10 µM) 0
O=c1[nH]ccc2nc(-c3ccc(CN4CCC(c5nc(-c6ccccn6)n[nH]5)CC4)cc3)c(-c3ccccc3)cc12 (10 µM) 0
COc1ccc(Nc2ncc(C(F)(F)F)c(NC3CC3)n2)cc1OC (10 µM) 0
O=C1NC(=O)/C(=C\c2c[nH]c(=O)c(-c3ccc(N4CCNCC4)nc3)c2)S1 [Protein kinase inhibitors 1 hydrochloride] (10 µM) 0
CCN(CC)CCCC(C)Nc1nc(C)cc(Nc2ccc3nc(C)cc(N)c3c2)n1 (stereo not drawn) (10 µM) 0

Among those listed so far, these contain fluorine.
kinase-Nluc reporter destabilization hit call, inactive:
CC(C)CCN1c2nc(Nc3cc(F)c(O)c(F)c3)ncc2N(C)C(=O)C1C (stereo not drawn) (2.5 µM) 0
CNC(=O)c1cc2c(Oc3ccc(NC(=O)C4(C(=O)Nc5ccc(F)cc5)CC4)cc3)ccnc2cc1OC (2.5 µM) 0
O=C(Nc1cccnc1)c1cc(-c2ccnc(F)c2)ccc1OCc1ccccc1 (10 µM) 0
COc1cc2nccc(Oc3ccc(NC(=O)c4cn(C(C)C)c(=O)n(-c5ccc(F)cc5)c4=O)cc3F)c2cc1OC (0.5 µM) 0
NC1(C(=O)NCCCn2cc(-c3ccc(OC(F)(F)F)cc3)c3cc(CN4CCN(Cc5c(Cl)cccc5Cl)CC4)ccc32)CCNCC1 (2.5 µM) 0
Fc1ccc2[nH]ccc2c1-c1nc(N2CCOCC2)c2sc(CN3CCN(CC4CC4)CC3)cc2n1 (10 µM) 0
Cn1cc(-c2cc(Oc3cc(F)c(NC(=O)C4(C(=O)Nc5ccccc5)CC4)cc3F)ccn2)cn1 (2.5 µM) 0
N#Cc1cnc2c(Cl)cc(NCc3cn(CCN4CCCCCC4)nn3)cc2c1Nc1ccc(F)c(Cl)c1 [Cot inhibitor-1] (10 µM) 0
COc1ccc(Nc2ncc(C(F)(F)F)c(NC3CC3)n2)cc1OC (10 µM) 0

From the supplement of paper PMC12823440, “Inhibitors supercharge kinase turnover through native proteolytic circuits” (Nature, 2025)
